{"source": "patent US11407825B2", "about": "“NaPi2b-targeted polymer antibody-drug conjugates and methods of use thereof” (Mersana Therapeutics, Inc., priority 2018, dated 2022)", "molecules": {"B1": {"name": "XMT-1536: about 10-15 molecules of auristatin F-hydroxypropyl amide conjugated to a cysteine moiety of NaPi2b monoclonal antibody XMT-1535 via a PHF scaffold (conjugate, chains of the INN, looked up)", "VH": "QVQLVQSGAEVVKPGASVKMSCKASGYTFTGYNIHWVKQAPGQGLEWIGAIYPGNGDTSYKQKFRGRATLTADTSTSTVYMELSSLRSEDSAVYYCARGETARATFAYWGQGTLVTVSS", "VL": "DIQMTQSPSSLSASVGDRVTITCSASQDIGNFLNWYQQKPGKTVKVLIYYTSSLYSGVPSRFSGSGSGTDYTLTISSLQPEDFATYYCQQYSKLPLTFGQGTKLELK", "modifications": "auristatin F-hydroxypropyl amide via PHF scaffold", "notes": "about 10-15 molecules of auristatin F-hydroxypropyl amide conjugated to a cysteine moiety of NaPi2b monoclonal antibody XMT-1535 via a PHF scaffold"}}, "test_system": "NaPi2b expressing tumors", "experiment": "Phase 1b study of XMT-1536: duration on study and reason for discontinuation", "format": "in vivo, human", "text": "The study presented herein is an open label, multi-center Phase 1b study of XMT-1536 administered as an intravenous infusion once every three or four weeks. The dose escalation (DES) part of the study will establish the maximum tolerated dose (MTD) or recommended Phase 2 dose (RP2D) for XMT-1536 in patients with a number of tumor types likely to express NaPi2b, with a focus on patients with platinum-resistant ovarian cancer and non-squamous non-small cell lung cancer (NSCLC). […] The RP2D may differ from the MTD and may take into account tolerability, pharmacokinetic and pharmacodynamic measures, and efficacy of XMT-1536 based on RECIST 1.1. After the first cycle, patients may continue to receive XMT-1536 until disease progression provided the drug is well-tolerated and patients continue to derive clinical benefit in the opinion of the Investigator. The DES segment of the study utilized an accelerated titration design. The first 3-week cycle of treatment constitutes the dose limiting toxicity (DLT) evaluation period. For the first two dose levels, a minimum of 1 patient was treated at each dose level. If this patient experiences a treatment-emergent adverse event of Grade 2 or higher, 2 additional patients will be added at this dose level, and the study will subsequently follow a 3+3 design, as described below. […] Starting with Dose Level 3, the study will follow a standard 3+3 design, with 3 patients enrolled initially at each dose level. […] However, in the event of 1 DLT, 3 additional patients will be enrolled at the same dose level. Any dose level with 2 or more DLTs will be considered to exceed the MTD and subsequent patients will be enrolled at lower dose level(s). After the first cycle, patients may continue to receive XMT-1536 until disease progression if the drug is well-tolerated and patients continue to derive clinical benefit in the opinion of the Investigator.\nAfter an August 2018 protocol amendment, each cycle will be 4-week (28 day) dose cycle. The first two, 4-week cycles of treatment (56 days) constitutes the dose limiting toxicity (DLT) evaluation period. Beginning with this amendment, up to 10 patients will be enrolled for evaluation at 20.0 mg/m^2 under the new 4-week cycle dose regimen. If that dose is cleared by the SRC, subsequent dose groups will follow a modified 3+3 design. Three patients will be enrolled initially and if toxicity issues arise, the SRC will review all pertinent data and may decide to add more patients to fully evaluate a dose in question and/or lower the dose. […] The observation period for DLTs is 56 days, between Day 1 through the end of Cycle 2 which includes the pre-dose assessments before receiving the Cycle 3 dose. A maximum of ten patients will be enrolled per dose level prior to the SRM. that will be conducted no later than 5 days after at least the sixth patient dosed in each level has completed Cycle 2, Day 28 evaluations. The data available for the patients dosed in all prior will be factored into the data review for each applicable dose escalation SRM. Any dose level with 2 or more DLTs occurring in 6 or fewer treated patients will be considered to exceed the MTD and subsequent patients will be enrolled at lower dose level(s). After the second cycle, patients may continue to receive XMT-1536 until disease progression if the drug is well-tolerated and patients continue to derive clinical benefit in the opinion of the Investigator. After completion of DES, the EXP segment of the study will be opened.\nTreatment will continue indefinitely unless one of the following occurs: disease progression, inter-current illness that prevents further administration of treatment, unacceptable adverse events or pregnancy, patient non-compliance with the protocol, patient withdraws consent for participation from the study, and/or general or specific changes in the patient's condition render the patient unacceptable for further treatment in the judgment of the Investigator."}
{"molecule": "B1", "values": [{"measurement": "Duration on Study Min/Max", "setting": "DL 1, 3 mg/m^2, 21-day cycle, N = 1, as of August 2019", "value": 4, "unit": "cycles"}, {"measurement": "Duration on Study Min/Max", "setting": "DL 1, 3 mg/m^2, 21-day cycle, N = 1, as of February 2019", "value": 4, "unit": "cycles"}, {"measurement": "Duration on Study Min/Max", "setting": "DL 2, 6 mg/m^2, 21-day cycle, N = 1, as of August 2019", "value": 2, "unit": "cycles"}, {"measurement": "Duration on Study Min/Max", "setting": "DL 2, 6 mg/m^2, 21-day cycle, N = 1, as of February 2019", "value": 2, "unit": "cycles"}, {"measurement": "Duration on Study Min/Max", "setting": "DL 3, 12 mg/m^2, 21-day cycle, N = 7, as of August 2019", "value": "1 to 4", "unit": "cycles"}, {"measurement": "Duration on Study Min/Max", "setting": "DL 3, 12 mg/m^2, 21-day cycle, N = 7, as of February 2019", "value": "1 to 4", "unit": "cycles"}, {"measurement": "Duration on Study Min/Max", "setting": "DL 4, 20 mg/m^2, 21-day cycle, N = 6, as of August 2019", "value": "1 to 10", "unit": "cycles"}, {"measurement": "Duration on Study Min/Max", "setting": "DL 4, 20 mg/m^2, 21-day cycle, N = 6, as of February 2019", "value": "1 to 10", "unit": "cycles"}, {"measurement": "Duration on Study Min/Max", "setting": "DL 4A, 20 mg/m^2, 28-day cycle, as of August 2019", "value": "1 to 12", "unit": "cycles"}, {"measurement": "Duration on Study Min/Max", "setting": "DL 4A, 20 mg/m^2, 28-day cycle, as of February 2019", "value": "1 to 6", "unit": "cycles"}, {"measurement": "Duration on Study Min/Max", "setting": "DL 5, 30 mg/m^2, 21-day cycle, N = 4, as of August 2019", "value": "1 to 4", "unit": "cycles"}, {"measurement": "Duration on Study Min/Max", "setting": "DL 5, 30 mg/m^2, 21-day cycle, N = 4, as of February 2019", "value": "1 to 4", "unit": "cycles"}, {"measurement": "Duration on Study Min/Max", "setting": "DL 5A Additional, 30 mg/m^2, 28-day cycle, N = 7, as of August 2019", "value": 2, "unit": "cycles"}, {"measurement": "Duration on Study Min/Max", "setting": "DL 5A, 30 mg/m^2, 28-day cycle, N = 7, as of February 2019", "value": "2 to 3", "unit": "cycles"}, {"measurement": "Duration on Study Min/Max", "setting": "DL 5A, 30 mg/m^2, 28-day cycle, N = 8, as of August 2019", "value": "2 to 6", "unit": "cycles"}, {"measurement": "Duration on Study Min/Max", "setting": "DL 6, 40 mg/m^2, 21-day cycle, N = 1, as of August 2019", "value": 1, "unit": "cycle"}, {"measurement": "Duration on Study Min/Max", "setting": "DL 6, 40 mg/m^2, 21-day cycle, N = 1, as of February 2019", "value": 1, "unit": "cycle"}, {"measurement": "Duration on Study Min/Max", "setting": "DL 6A, 28-day cycle, N = 7, as of August 2019", "value": 2, "unit": "cycles"}, {"measurement": "maximum duration on study for a patient ongoing in the trial", "setting": "as of August 2019", "value": 50, "unit": "weeks"}]}
